# Experimental data as given in the supplement of paper PMC10727501.
# Some of the results follow. Repeats in this data set agree poorly, so a single value says little.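 Researchers measured free-swimming zebrafish larvae's O-bend response probability to dark flashes (naive: first five; training: remaining flashes of four 60-flash blocks; test: later 60-flash block) and OMR turning toward alternating leftward/rightward LED motion. Six treated larvae were compared to sixty 0.1% DMSO controls, with |SSMD|≥2 marking a hit.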
# Columns and labels:
# Conditions in all cases: 10 µM; pre-incubation: 30-90 min
# [1] = tested on: Danio rerio larvae (5 dpf, TLF); experiment: OMR-Perf (SSMD vs DMSO vehicle); higher = higher than vehicle (e.g. higher dark-flash O-bend response probability, or better optomotor performance)
# [2] = tested on: Danio rerio larvae (5 dpf, TLF); experiment: Prob-Test (SSMD vs DMSO vehicle); higher = higher than vehicle (e.g. higher dark-flash O-bend response probability, or better optomotor performance)
# [3] = tested on: Danio rerio larvae (5 dpf, TLF); experiment: Prob-Naive (SSMD vs DMSO vehicle); higher = higher than vehicle (e.g. higher dark-flash O-bend response probability, or better optomotor performance)
# [4] = tested on: Danio rerio larvae (5 dpf, TLF); experiment: Prob-Train (SSMD vs DMSO vehicle); higher = higher than vehicle (e.g. higher dark-flash O-bend response probability, or better optomotor performance)
Structure (SMILES),OMR-Perf [1],Prob-Test [2],Prob-Naive [3],Prob-Train [4]
Cc1cc(Nc2nc(N[C@@H](C)c3ccc(F)cc3)c(C#N)cc2F)n[nH]1,-1.02,-1.35,-0.13,0.0261
CNC(=O)c1ccc2cc(C3(O)CCn4cncc43)ccc2c1 (configuration not stated) [TAK-700 (Orteronel)],-0.701,-0.833,0.587,-0.463
C[C@H]1CCN(C(=O)CC#N)C[C@@H]1N(C)c1ncnc2[nH]ccc12.O=C(O)CC(O)(CC(=O)O)C(=O)O,-0.104,0.0607,0.145,-0.0484
Nc1nc(NC2CC2)c2ncn([C@H]3C=C[C@@H](CO)C3)c2n1.Nc1nc(NC2CC2)c2ncn([C@H]3C=C[C@@H](CO)C3)c2n1.O=S(=O)(O)O [Abacavir sulfate],-0.316,-0.47,0.549,-0.149
N#Cc1c(Oc2ccc(F)c(NC(=O)Cc3cccc(C(F)(F)F)c3)c2)ccc2nc(NC(=O)C3CC3)sc12,0.025,0.513,0.227,0.553
COc1ccc(-c2nc(N3CCOCC3)c3sc(CN(C)c4ncc(C(=O)NO)cn4)cc3n2)cn1,-0.215,0.106,0.319,0.125
O=C(O)c1ccc(N2C(=O)C(=Cc3ccc(-c4ccc([N+](=O)[O-])cc4)o3)C=C2c2ccccc2)cc1,-0.522,0.218,0.312,0.527
CN1CC[C@@H](c2c(O)cc(O)c3c(=O)cc(-c4ccccc4Cl)oc23)[C@@H]1CO.Cl,-0.115,-0.077,0.227,-0.472
CN[C@H](CC(C)C)C(=O)N[C@H]1C(=O)N[C@@H](CC(N)=O)C(=O)N[C@H]2C(=O)N[C@H]3C(=O)N[C@@H](C(=O)N[C@H](C(=O)O)c4cc(O)cc(O)c4-c4cc3ccc4O)[C@H](O)c3ccc(c(Cl)c3)Oc3cc2cc(c3O[C@H]2O[C@H](CO)[C@@H](O)[C@H](O)[C@H]2O[C@H]2C[C@@](C)(N)[C@H](O)[C@H](C)O2)Oc2ccc(cc2Cl)[C@H]1O.Cl [Vancomycin HCl (Vancocin)],0.597,-0.203,0.402,-0.27
CCCSc1ccc2nc(NC(=O)OC)[nH]c2c1 [Albendazole],-0.854,-1.69,0.096,0.193
CCn1cc(-c2ccnc3[nH]c(-c4cccc(CN(C)C)c4)cc23)c(-c2ccc(NC(=O)N(C)C)cc2)n1,-0.716,-0.126,0.289,-0.387
Cl.Cl.Cl.Cl.Cl.NCCNCCNCCNCCN [Tetraethylenepentamine 5HCl],0.431,0.521,-0.491,0.0703
OC[C@@H](O)[C@@H](O)[C@H](O)[C@H](O)CO [D-Mannitol],-0.456,-0.176,0.208,-0.277
COc1cc2c(cc1-c1c(C)noc1C)ncc1[nH]c(=O)n([C@H](C)c3ccccn3)c12,0.212,0.297,0.587,0.135
NCCCC[C@H](N[C@@H](CCc1ccccc1)C(=O)O)C(=O)N1CCC[C@H]1C(=O)O [Lisinopril (Zestril)],-0.439,-0.579,-0.618,-0.561
CC(C)(Oc1ccc(Cl)cc1)C(=O)O [Clofibric Acid],-0.63,0.38,-0.184,0.267
COc1ccc(O)cc1 [Mequinol],-0.471,0.461,0.585,0.224
CC[C@@H](C)[C@@H]1NC(=O)[C@@H](CCCN)NC(=O)[C@@H](NC(=O)[C@@H](NC(=O)[C@@H](CCC(=O)[O-])NC(=O)[C@H](CC(C)C)NC(=O)C2CN=C([C@@H](N)[C@@H](C)CC)S2)[C@H](C)CC)CCCCNC(=O)[C@H](CC(N)=O)NC(=O)[C@@H](CC(=O)[O-])NC(=O)[C@H](Cc2c[nH]cn2)NC(=O)[C@H](Cc2ccccc2)NC1=O.[Zn+2] (some centres not stated) [Bacitracin zinc],-0.402,-0.268,-0.203,-0.529
Nc1nccc(Oc2ccc(NC(=O)c3c[nH]cc(-c4ccc(F)cc4)c3=O)cc2F)c1Cl,-0.454,-0.66,0.289,0.016

Structure (SMILES),OMR-Perf [1],Prob-Test [2],Prob-Naive [3],Prob-Train [4]
CN(C)C(=O)[C@H](O)[C@H](Cc1ccccc1)NC(=O)c1cc2cc(Cl)ccc2[nH]1,0.385,-0.591,-0.144,-0.475
Br.CN1CCC[C@@H]1Cc1c[nH]c2ccc(CCS(=O)(=O)c3ccccc3)cc12 [Eletriptan HBr],-0.466,-0.109,0.389,0.372
C=CCn1c(=O)c2cnc(Nc3ccc(N4CCN(C)CC4)cc3)nc2n1-c1cccc(C(C)(C)O)n1,0.734,0.241,0.214,-0.277
Cn1cc(-c2ccncc2)c(-c2ccc(OCc3ccc4ccccc4n3)cc2)n1,-0.718,-1.67,-3.73,-1.65
Cc1noc(-c2ccc(CSCCC(=O)O)cc2)c1NC(=O)OC(C)c1ccccc1Cl (configuration not stated),0.308,0.185,-0.269,-0.0412
CN[C@@H]1CC[C@@H](c2ccc(Cl)c(Cl)c2)c2ccccc21.Cl [Sertraline HCl],-0.672,-1.58,0.389,-1.19
Cc1ccc(S(=O)(=O)Nc2nc3ccccc3nc2Nc2ccc3nsnc3c2)cc1,-0.276,-0.219,-0.605,-0.485
Nc1ccn(C[C@@H](CO)OCP(=O)(O)O)c(=O)n1 [Cidofovir (Vistide)],-0.252,0.301,0.312,0.0231
CC(C)CCN1c2nc(Nc3cc(F)c(O)c(F)c3)ncc2N(C)C(=O)C1C (configuration not stated),-0.325,0.718,-0.31,-0.444
Cc1nc(NC(=O)N2CCC[C@H]2C(N)=O)sc1-c1csc(C(C)(C)C)n1,0.34,0.0951,-0.0697,-0.282
Cc1c(NC(=O)OC[C@@H]2COCCN2)cn2ncnc(Nc3ccc4c(cnn4Cc4cccc(F)c4)c3)c12.Cl,0.0203,-0.109,0.00409,0.237
O[C@@H]1CO[C@@H]2[C@@H]1OC[C@@H]2O [Isosorbide],-0.635,-0.0692,0.351,-0.0565
CCOc1cc2ncc(C#N)c(Nc3ccc(OCc4ccccn4)c(Cl)c3)c2cc1NC(=O)/C=C/CN(C)C [Neratinib (HKI-272)],0.263,0.488,-0.212,0.0647
CC1CNc2c(cccc2S(=O)(=O)N[C@@H](CCCNC(=N)N)C(=O)N2CC[C@@H](C)C[C@H]2C(=O)O)C1 (some centres not stated) [Argatroban],-0.0177,0.11,-0.0225,0.352
CC(C)[N+]1(C)C2CCC1CC(OC(=O)C(CO)c1ccccc1)C2.[Br-] (configuration not stated) [Ipratropium Bromide],0.152,-0.0189,-0.385,-0.227
O=c1ncccn1[C@@H]1O[C@H](CO)[C@H](O)[C@@H]1O [Zebularine],-0.282,0.14,0.446,0.22
CC(=O)C1CCC2C3C[C@H](C)C4=CC(=O)CCC4(C)C3C(O)CC12C (some centres not stated) [Medrysone],-0.143,0.4,0.153,-0.497
O=C(Nc1ccc(S(=O)(=O)Nc2ccccc2Cl)c(Cl)c1)c1ccccn1,-0.0654,0.44,-2.31,-0.245
COc1ccc(CCc2nc3cc(-c4c(C)noc4C)ccc3n2C[C@H](C)N2CCOCC2)cc1Cl,-0.748,-1.75,-0.842,-1.87

# Two of the compounds above, with tabs:
Structure (SMILES)	OMR-Perf [1]	Prob-Test [2]	Prob-Naive [3]	Prob-Train [4]
Cc1cc(Nc2nc(N[C@@H](C)c3ccc(F)cc3)c(C#N)cc2F)n[nH]1	-1.02	-1.35	-0.13	0.0261
NCCCC[C@H](N[C@@H](CCc1ccccc1)C(=O)O)C(=O)N1CCC[C@H]1C(=O)O [Lisinopril (Zestril)]	-0.439	-0.579	-0.618	-0.561
